Experimental findings from US20050239832A1, “Methods of treatment of amyloidosis using bi-cyclic aspartyl protease inhibitors” (priority 2004, published 2005) are described below.

This series in a line: Brain uptake in CF-1 mice after IV administration. The settings on record: CF-1, mouse, in vivo, 10 μmol/kg. The protocol: The following assay was employed to determine the brain penetration of compounds encompassed by the present invention.
In-life phase: Test compounds were administered to CF-1 (20-30 g) mice at 10 μmol/kg (4 to 7 mg/kg) following IV administration in the tail vein. Two time-points, 5 and 60 min, were collected post dose. Four mice were harvested for heparinized plasma and non-perfused brains at each time-point for a total of 8 mice per compound.
Analytical phase: Samples were extracted and evaporated to dryness, then reconstituted and injected onto a reverse phase chromatographic column while monitoring the effluent with a triple quadrupole mass spectrometer. Quantitation was then performed with a 1/x^2 weighted fit of the least-squares regression from calibration standards prepared in parallel with the in vivo samples. The LOQ is generally 1 ng/mL and 0.5 ng/g for the plasma and brain respectively. Data was reported in micromolar (μM) units. Brain levels were corrected for plasma volumes (16 μL/g).

Structures are written as SMILES.

As for `CN1C(=O)CN=C(c2ccccc2)c2cc(Cl)ccc21` [Diazepam], the concentration at 5 min was found to be 5480 nM and the concentration at 60 min was determined as 176 nM.
